# Counter-ions that a name gives are not always drawn. This is one part of the list. The calls rarely recur for the same compound in another form.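 In K562 cells expressing nanoluciferase-fused kinases, luminescence was recorded at 4 h intervals between 2 and 18 h, normalized as percent of control with DMSO at 100% and a positive control at 0%. A significant (2 sigma) signal drop marks a time point as decreased. The authors' rule for a hit is not shown and takes in more than the number of time points.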
# By UniProt entry, the sequences of proteins in these tests, tags left out. Where a name states a change or a piece, a line headed by the entry shows the natural chain unless it says otherwise.
# UniProt P07949, whole entry, looked up: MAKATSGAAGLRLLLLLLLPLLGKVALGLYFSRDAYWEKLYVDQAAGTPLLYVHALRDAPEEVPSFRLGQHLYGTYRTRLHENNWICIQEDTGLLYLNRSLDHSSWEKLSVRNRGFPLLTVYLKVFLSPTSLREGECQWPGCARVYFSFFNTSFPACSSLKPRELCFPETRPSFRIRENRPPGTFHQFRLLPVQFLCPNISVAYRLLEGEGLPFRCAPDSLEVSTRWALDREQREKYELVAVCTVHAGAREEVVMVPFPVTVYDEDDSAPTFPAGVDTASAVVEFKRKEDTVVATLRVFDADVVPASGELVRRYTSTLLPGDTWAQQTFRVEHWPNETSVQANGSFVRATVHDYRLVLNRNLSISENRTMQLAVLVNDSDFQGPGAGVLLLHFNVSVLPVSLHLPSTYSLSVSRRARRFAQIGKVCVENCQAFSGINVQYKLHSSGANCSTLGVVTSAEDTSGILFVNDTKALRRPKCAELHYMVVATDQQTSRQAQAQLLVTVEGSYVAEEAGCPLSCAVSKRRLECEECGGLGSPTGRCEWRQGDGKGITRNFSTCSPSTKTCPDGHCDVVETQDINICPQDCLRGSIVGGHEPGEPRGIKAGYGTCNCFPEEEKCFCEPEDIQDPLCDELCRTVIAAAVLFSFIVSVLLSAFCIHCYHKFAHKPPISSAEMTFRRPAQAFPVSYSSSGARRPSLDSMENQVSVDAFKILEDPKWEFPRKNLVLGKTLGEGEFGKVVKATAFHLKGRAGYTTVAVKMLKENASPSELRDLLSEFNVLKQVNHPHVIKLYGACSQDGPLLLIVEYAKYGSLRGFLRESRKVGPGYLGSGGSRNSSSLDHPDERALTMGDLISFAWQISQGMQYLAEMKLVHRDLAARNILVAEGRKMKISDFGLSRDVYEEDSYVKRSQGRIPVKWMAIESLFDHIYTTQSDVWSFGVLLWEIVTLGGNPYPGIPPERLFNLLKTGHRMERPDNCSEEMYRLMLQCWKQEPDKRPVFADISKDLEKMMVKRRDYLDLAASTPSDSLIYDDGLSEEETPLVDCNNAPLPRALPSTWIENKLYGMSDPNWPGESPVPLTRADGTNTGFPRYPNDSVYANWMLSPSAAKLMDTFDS
# UniProt P07949, whole entry M918T, looked up: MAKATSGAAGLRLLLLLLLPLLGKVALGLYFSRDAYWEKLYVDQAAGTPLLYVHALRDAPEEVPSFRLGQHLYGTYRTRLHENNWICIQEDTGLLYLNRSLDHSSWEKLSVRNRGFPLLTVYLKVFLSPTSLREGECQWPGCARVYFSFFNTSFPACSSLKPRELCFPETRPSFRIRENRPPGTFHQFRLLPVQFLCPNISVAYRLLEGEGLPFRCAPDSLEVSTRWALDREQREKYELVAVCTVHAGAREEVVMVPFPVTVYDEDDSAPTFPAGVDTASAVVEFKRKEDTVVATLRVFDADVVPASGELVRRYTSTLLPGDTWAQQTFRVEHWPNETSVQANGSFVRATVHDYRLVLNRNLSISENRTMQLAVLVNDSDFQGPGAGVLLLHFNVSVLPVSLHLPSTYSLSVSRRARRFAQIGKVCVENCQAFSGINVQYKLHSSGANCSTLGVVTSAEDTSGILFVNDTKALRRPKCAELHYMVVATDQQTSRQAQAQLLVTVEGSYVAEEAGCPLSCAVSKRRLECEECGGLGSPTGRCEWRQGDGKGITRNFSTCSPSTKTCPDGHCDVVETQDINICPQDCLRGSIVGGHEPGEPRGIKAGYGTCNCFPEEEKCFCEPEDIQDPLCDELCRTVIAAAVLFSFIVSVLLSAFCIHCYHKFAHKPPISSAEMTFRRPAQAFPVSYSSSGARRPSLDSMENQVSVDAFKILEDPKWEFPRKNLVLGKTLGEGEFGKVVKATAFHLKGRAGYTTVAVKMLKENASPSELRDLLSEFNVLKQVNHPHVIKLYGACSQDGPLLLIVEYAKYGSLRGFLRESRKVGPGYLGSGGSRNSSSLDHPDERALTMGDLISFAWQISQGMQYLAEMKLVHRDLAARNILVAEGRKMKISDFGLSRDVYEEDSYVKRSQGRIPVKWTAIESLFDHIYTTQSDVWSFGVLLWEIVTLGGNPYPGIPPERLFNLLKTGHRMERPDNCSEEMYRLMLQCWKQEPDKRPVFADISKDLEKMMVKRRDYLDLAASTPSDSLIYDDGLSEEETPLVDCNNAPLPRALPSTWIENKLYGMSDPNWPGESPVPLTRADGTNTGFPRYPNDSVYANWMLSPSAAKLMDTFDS
# UniProt Q01974, whole entry: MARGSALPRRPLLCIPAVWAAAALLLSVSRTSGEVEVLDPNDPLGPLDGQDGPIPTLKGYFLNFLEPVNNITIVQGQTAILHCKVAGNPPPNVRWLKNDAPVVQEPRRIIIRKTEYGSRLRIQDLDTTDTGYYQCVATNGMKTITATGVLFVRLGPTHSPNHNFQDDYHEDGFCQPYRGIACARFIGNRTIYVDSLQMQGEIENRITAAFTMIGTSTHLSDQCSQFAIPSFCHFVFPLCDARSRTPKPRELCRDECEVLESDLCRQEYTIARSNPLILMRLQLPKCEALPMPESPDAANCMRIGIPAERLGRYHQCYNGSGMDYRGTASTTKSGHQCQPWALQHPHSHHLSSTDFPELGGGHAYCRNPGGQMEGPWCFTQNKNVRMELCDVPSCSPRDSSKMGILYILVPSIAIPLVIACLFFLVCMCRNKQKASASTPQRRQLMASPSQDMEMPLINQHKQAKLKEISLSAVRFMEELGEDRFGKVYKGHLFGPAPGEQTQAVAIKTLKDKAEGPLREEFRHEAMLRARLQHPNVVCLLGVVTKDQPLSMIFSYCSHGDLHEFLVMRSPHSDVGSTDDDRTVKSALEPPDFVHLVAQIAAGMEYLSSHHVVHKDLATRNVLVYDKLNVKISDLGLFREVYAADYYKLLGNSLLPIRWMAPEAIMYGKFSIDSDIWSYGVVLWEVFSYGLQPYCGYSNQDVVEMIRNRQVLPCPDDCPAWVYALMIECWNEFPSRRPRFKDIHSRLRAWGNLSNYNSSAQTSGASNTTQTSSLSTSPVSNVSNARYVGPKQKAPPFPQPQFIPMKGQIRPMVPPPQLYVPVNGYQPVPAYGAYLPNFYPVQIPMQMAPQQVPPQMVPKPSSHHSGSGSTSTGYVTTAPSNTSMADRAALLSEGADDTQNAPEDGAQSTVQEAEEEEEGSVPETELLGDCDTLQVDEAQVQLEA
# UniProt Q15418, whole entry: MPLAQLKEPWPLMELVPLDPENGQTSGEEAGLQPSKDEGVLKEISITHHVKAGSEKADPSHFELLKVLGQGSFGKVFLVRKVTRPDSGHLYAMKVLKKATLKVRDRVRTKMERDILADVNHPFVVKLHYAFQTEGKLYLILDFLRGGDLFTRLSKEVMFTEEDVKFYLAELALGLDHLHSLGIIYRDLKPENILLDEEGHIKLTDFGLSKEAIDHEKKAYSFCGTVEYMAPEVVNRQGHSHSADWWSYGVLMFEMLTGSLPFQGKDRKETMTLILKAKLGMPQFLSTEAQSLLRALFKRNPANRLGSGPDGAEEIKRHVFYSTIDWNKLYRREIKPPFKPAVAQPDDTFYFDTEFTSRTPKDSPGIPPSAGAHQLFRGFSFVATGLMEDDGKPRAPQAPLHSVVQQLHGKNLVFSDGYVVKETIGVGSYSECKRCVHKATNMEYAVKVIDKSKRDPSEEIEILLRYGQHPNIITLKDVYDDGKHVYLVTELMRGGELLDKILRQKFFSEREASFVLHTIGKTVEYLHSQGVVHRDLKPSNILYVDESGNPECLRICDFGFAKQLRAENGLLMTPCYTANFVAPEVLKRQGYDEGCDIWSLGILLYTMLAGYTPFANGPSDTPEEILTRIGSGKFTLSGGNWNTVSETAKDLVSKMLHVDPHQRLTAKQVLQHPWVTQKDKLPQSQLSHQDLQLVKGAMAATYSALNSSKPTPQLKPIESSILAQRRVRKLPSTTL
# UniProt Q9NYA1, whole entry: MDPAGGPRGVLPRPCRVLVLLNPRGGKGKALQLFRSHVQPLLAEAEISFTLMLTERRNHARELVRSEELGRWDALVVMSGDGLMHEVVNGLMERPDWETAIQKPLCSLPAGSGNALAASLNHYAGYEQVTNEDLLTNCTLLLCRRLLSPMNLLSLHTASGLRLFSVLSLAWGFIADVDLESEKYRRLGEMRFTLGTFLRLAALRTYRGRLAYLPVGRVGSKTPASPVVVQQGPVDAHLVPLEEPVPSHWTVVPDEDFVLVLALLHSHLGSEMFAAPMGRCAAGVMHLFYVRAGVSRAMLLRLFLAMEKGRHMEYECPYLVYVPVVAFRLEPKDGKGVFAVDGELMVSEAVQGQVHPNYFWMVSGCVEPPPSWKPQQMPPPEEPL
# UniProt P42680: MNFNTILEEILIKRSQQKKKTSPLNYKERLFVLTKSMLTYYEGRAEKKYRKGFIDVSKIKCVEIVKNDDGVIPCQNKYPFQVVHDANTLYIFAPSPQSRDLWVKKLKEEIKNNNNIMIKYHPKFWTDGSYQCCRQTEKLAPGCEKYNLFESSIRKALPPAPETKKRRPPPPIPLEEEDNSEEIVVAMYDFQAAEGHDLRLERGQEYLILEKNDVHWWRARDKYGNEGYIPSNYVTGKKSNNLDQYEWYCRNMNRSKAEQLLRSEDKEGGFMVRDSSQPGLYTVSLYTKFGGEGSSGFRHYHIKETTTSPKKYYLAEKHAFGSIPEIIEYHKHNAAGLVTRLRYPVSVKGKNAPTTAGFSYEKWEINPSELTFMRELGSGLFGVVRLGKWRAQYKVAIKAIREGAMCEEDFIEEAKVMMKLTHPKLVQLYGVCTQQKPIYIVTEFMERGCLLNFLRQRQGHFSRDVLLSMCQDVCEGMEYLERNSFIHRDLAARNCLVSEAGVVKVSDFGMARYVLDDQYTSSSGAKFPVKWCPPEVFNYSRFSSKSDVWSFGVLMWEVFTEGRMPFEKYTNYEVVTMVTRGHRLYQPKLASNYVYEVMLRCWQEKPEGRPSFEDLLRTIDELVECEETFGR
# UniProt P07947, whole entry, looked up: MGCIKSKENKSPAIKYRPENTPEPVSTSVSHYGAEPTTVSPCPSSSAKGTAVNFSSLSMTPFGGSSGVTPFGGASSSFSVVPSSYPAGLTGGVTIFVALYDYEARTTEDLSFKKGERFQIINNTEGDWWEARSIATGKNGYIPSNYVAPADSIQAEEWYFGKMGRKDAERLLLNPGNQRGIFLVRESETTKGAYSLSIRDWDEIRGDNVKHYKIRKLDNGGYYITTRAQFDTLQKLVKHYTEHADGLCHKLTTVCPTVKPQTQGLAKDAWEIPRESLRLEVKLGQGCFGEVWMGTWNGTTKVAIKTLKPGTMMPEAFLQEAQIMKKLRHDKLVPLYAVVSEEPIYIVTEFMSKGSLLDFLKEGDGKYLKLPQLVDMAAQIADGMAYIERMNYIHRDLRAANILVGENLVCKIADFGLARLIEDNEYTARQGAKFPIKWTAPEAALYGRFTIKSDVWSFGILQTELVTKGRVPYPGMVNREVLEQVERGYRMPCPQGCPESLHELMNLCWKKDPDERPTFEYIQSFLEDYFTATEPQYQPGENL
# UniProt P00519, whole entry: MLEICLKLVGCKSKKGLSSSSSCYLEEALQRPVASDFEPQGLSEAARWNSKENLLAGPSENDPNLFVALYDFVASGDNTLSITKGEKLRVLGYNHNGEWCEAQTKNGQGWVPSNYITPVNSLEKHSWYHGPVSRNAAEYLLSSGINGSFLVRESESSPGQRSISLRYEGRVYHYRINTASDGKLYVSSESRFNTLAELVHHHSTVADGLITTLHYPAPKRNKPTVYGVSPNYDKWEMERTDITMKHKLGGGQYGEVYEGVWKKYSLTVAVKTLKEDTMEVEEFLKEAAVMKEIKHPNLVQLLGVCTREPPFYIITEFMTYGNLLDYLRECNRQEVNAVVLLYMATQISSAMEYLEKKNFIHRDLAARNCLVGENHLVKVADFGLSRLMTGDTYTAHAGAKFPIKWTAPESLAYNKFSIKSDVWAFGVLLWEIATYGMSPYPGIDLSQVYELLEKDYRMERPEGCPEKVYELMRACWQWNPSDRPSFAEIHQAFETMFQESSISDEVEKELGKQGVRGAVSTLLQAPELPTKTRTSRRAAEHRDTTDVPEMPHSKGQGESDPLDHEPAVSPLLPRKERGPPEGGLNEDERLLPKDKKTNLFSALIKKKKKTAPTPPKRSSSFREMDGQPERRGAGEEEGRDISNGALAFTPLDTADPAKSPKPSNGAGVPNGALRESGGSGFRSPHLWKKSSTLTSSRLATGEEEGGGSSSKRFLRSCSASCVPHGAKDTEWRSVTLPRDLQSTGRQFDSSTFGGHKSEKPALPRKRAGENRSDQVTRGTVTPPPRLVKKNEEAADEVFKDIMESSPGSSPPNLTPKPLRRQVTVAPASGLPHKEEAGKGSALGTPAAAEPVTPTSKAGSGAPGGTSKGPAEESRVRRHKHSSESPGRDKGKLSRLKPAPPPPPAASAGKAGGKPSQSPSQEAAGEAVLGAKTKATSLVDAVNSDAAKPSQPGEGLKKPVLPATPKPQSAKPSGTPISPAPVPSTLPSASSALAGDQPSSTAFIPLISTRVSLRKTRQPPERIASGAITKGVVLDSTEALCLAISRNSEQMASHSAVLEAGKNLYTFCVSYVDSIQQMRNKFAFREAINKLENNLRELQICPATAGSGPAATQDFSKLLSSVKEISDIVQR
# How the values were obtained:
# Conditions in all cases: K562; 2-18 h
# [1] = biological target: RET (UniProt P07949); assay: kinase-Nluc reporter destabilization hit call (1 = scored as downregulated) (binary); higher = compound decreases kinase abundance
# [2] = biological target: RET_M918T (clone: RET_mut) (UniProt P07949); assay: as above
# [3] = biological target: RIOK1 (UniProt Q9BRS2); assay: as above
# [4] = biological target: RIPK1 (UniProt Q13546); assay: as above
# [5] = biological target: RIPK2 (UniProt O43353); assay: as above
# [6] = biological target: ROR2 (UniProt Q01974); assay: as above
# [7] = biological target: RPS6KA1 (UniProt Q15418); assay: as above
# [8] = biological target: SPHK1 (UniProt Q9NYA1); assay: as above
# [9] = biological target: SRC (UniProt P12931); assay: as above
# [10] = biological target: STK24 (UniProt Q9Y6E0); assay: as above
# [11] = biological target: STK38 (UniProt Q15208); assay: as above
# [12] = biological target: SYK (UniProt P43405); assay: as above
# [13] = biological target: TEC (UniProt P42680); assay: as above
# [14] = biological target: TYK2 (UniProt P29597); assay: as above
# [15] = biological target: ULK3 (UniProt Q6PHR2); assay: as above
# [16] = biological target: YES1 (UniProt P07947); assay: as above
# [17] = biological target: ZAK (UniProt Q9NYL2); assay: as above
# [18] = biological target: ZAP70 (UniProt P43403); assay: as above
# [19] = biological target: ABL1 (UniProt P00519); assay: number of time points (of 5) at which kinase-Nluc abundance scored as decreased, DMSO-normalised (count); higher = more persistent destabilization
# [20] = biological target: AKT1 (UniProt P31749); assay: as above
Structure (SMILES),kinase-Nluc reporter destabilization hit call [1],kinase-Nluc reporter destabilization hit call [2],kinase-Nluc reporter destabilization hit call [3],kinase-Nluc reporter destabilization hit call [4],kinase-Nluc reporter destabilization hit call [5],kinase-Nluc reporter destabilization hit call [6],kinase-Nluc reporter destabilization hit call [7],kinase-Nluc reporter destabilization hit call [8],kinase-Nluc reporter destabilization hit call [9],kinase-Nluc reporter destabilization hit call [10],kinase-Nluc reporter destabilization hit call [11],kinase-Nluc reporter destabilization hit call [12],kinase-Nluc reporter destabilization hit call [13],kinase-Nluc reporter destabilization hit call [14],kinase-Nluc reporter destabilization hit call [15],kinase-Nluc reporter destabilization hit call [16],kinase-Nluc reporter destabilization hit call [17],kinase-Nluc reporter destabilization hit call [18],number of time points [19],number of time points [20]
CC(C)(CCCCCC(O)CCCCCC(C)(C)C(=O)O)C(=O)O [Bempedoic acid] (10 µM),inactive: 0,inactive: 0,inactive: 0,inactive: 0,inactive: 0,inactive: 0,inactive: 0,inactive: 0,inactive: 0,inactive: 0,inactive: 0,inactive: 0,inactive: 0,inactive: 0,inactive: 0,inactive: 0,inactive: 0,inactive: 0,0,0
Cc1nc(NC(=O)N2CCC[C@H]2C(N)=O)sc1-c1ccnc(C(C)(C)C(F)(F)F)c1 [Alpelisib] (2.5 µM),inactive: 0,inactive: 0,inactive: 0,inactive: 0,inactive: 0,inactive: 0,inactive: 0,inactive: 0,inactive: 0,inactive: 0,inactive: 0,inactive: 0,inactive: 0,inactive: 0,inactive: 0,inactive: 0,inactive: 0,inactive: 0,0,0
CN1CCC(Nc2nc(Nc3ccc(Oc4ccccc4)cc3)c3c(=O)[nH]cc(Br)c3n2)CC1 (2.5 µM),inactive: 0,inactive: 0,inactive: 0,inactive: 0,inactive: 0,inactive: 0,inactive: 0,inactive: 0,inactive: 0,inactive: 0,inactive: 0,inactive: 0,inactive: 0,inactive: 0,inactive: 0,inactive: 0,inactive: 0,inactive: 0,0,0
CS[C@@]1(C(=O)Nc2ccc3[nH]nc(-c4ccc(OC(C)C)nc4)c3c2)CCN(CC(=O)N2CC=C(c3ccc(-c4ncn(C)n4)cc3)CC2)C1 (2.5 µM),inactive: 0,inactive: 0,inactive: 0,inactive: 0,inactive: 0,inactive: 0,inactive: 0,inactive: 0,inactive: 0,inactive: 0,inactive: 0,inactive: 0,inactive: 0,inactive: 0,inactive: 0,inactive: 0,inactive: 0,inactive: 0,0,0
N#CC(=C(/N)Sc1ccccc1N)/C(C#N)=C(\N)Sc1ccccc1N (10 µM),inactive: 0,inactive: 0,inactive: 0,inactive: 0,inactive: 0,inactive: 0,inactive: 0,inactive: 0,inactive: 0,inactive: 0,inactive: 0,inactive: 0,inactive: 0,inactive: 0,active: 1,inactive: 0,inactive: 0,inactive: 0,0,0
CCCCNc1ncc(C(=O)NCc2ccc(-n3ccnc3)cc2)c(NC2CCC(O)CC2)n1 (stereo not given) (10 µM),inactive: 0,inactive: 0,inactive: 0,inactive: 0,inactive: 0,inactive: 0,inactive: 0,inactive: 0,inactive: 0,inactive: 0,inactive: 0,inactive: 0,inactive: 0,inactive: 0,inactive: 0,inactive: 0,inactive: 0,inactive: 0,5,0
N#Cc1cnc(Nc2cc(NC[C@H]3CNCCO3)c(C(F)(F)F)cn2)cn1 (10 µM),inactive: 0,inactive: 0,inactive: 0,inactive: 0,inactive: 0,inactive: 0,inactive: 0,inactive: 0,inactive: 0,inactive: 0,inactive: 0,inactive: 0,inactive: 0,inactive: 0,inactive: 0,inactive: 0,inactive: 0,inactive: 0,1,0
COCCNc1cc(NC(=O)N2CCCc3cc(CN4CCOCC4=O)c(C=O)nc32)ncc1C#N (10 µM),inactive: 0,inactive: 0,inactive: 0,inactive: 0,inactive: 0,inactive: 0,inactive: 0,inactive: 0,inactive: 0,inactive: 0,inactive: 0,inactive: 0,inactive: 0,inactive: 0,inactive: 0,inactive: 0,inactive: 0,inactive: 0,0,0
CC(=O)Nc1nc(C)c(-c2cc(C)c3c(c2)CN([C@@H](C)C2CC2)C3=O)s1 (10 µM),inactive: 0,inactive: 0,inactive: 0,inactive: 0,inactive: 0,inactive: 0,inactive: 0,inactive: 0,inactive: 0,inactive: 0,inactive: 0,inactive: 0,inactive: 0,inactive: 0,inactive: 0,inactive: 0,inactive: 0,inactive: 0,0,0
CC1=CC(=O)C(C(C)C)=C/C1=N/OC(=O)c1ccccc1C [Poloxin] (2.5 µM),inactive: 0,inactive: 0,inactive: 0,inactive: 0,inactive: 0,inactive: 0,inactive: 0,inactive: 0,inactive: 0,inactive: 0,inactive: 0,inactive: 0,inactive: 0,inactive: 0,inactive: 0,inactive: 0,inactive: 0,inactive: 0,0,0
CC(C)(C)S(=O)(=O)c1cc2c(Nc3ccc4scnc4c3)ncnc2cc1OCCOP(=O)(O)O (2 µM),inactive: 0,inactive: 0,inactive: 0,inactive: 0,active: 1,inactive: 0,inactive: 0,inactive: 0,inactive: 0,inactive: 0,inactive: 0,inactive: 0,inactive: 0,inactive: 0,inactive: 0,inactive: 0,inactive: 0,inactive: 0,0,0
CNCc1ccccc1Sc1cccc2ccccc12 [IFN alpha-IFNAR-IN-1 (hydrochloride)] (10 µM),inactive: 0,inactive: 0,inactive: 0,inactive: 0,inactive: 0,inactive: 0,inactive: 0,inactive: 0,inactive: 0,inactive: 0,inactive: 0,inactive: 0,inactive: 0,inactive: 0,inactive: 0,inactive: 0,inactive: 0,inactive: 0,2,0
CCCCNc1ncc2c(-c3ccc(F)cc3)nn(CC3CCC(N)CC3)c2n1 (stereo not given) (2.5 µM),inactive: 0,inactive: 0,inactive: 0,inactive: 0,inactive: 0,inactive: 0,inactive: 0,inactive: 0,inactive: 0,inactive: 0,inactive: 0,inactive: 0,inactive: 0,inactive: 0,inactive: 0,inactive: 0,inactive: 0,inactive: 0,0,0
O=C(CCl)c1c[nH]c2ccccc12 (2.5 µM),inactive: 0,inactive: 0,inactive: 0,inactive: 0,inactive: 0,inactive: 0,inactive: 0,inactive: 0,inactive: 0,inactive: 0,inactive: 0,inactive: 0,inactive: 0,inactive: 0,inactive: 0,inactive: 0,inactive: 0,inactive: 0,0,0
O=c1cc(-c2ccc(O[C@@H]3O[C@H](CO)[C@@H](O)[C@H](O)[C@H]3O)cc2)oc2cc(O)c([C@@H]3O[C@H](CO)[C@@H](O)[C@H](O)[C@H]3O[C@@H]3OC[C@H](O)[C@H](O)[C@H]3O)c(O)c12 [Vaccarin] (10 µM),inactive: 0,inactive: 0,inactive: 0,inactive: 0,inactive: 0,inactive: 0,inactive: 0,inactive: 0,inactive: 0,inactive: 0,inactive: 0,inactive: 0,inactive: 0,inactive: 0,inactive: 0,inactive: 0,inactive: 0,inactive: 0,0,0
COc1ccc2nc3ccc(OC)cc3c(SCCCN)c2c1 (10 µM),inactive: 0,inactive: 0,inactive: 0,inactive: 0,inactive: 0,inactive: 0,inactive: 0,inactive: 0,inactive: 0,inactive: 0,inactive: 0,inactive: 0,inactive: 0,inactive: 0,inactive: 0,inactive: 0,inactive: 0,inactive: 0,4,0
CS(=O)(=O)c1cccc(CNc2nc(Nc3ccc4c(c3)CCC(=O)N4)ncc2C(F)(F)F)c1 (10 µM),inactive: 0,inactive: 0,inactive: 0,inactive: 0,inactive: 0,inactive: 0,inactive: 0,inactive: 0,inactive: 0,inactive: 0,inactive: 0,inactive: 0,inactive: 0,inactive: 0,inactive: 0,inactive: 0,inactive: 0,inactive: 0,0,0
COc1cc2nc(-c3cc(F)ccc3O)nc(N[C@@H]3CNC[C@H]3C(C)(C)O)c2cc1OC (2.5 µM),inactive: 0,inactive: 0,inactive: 0,inactive: 0,inactive: 0,inactive: 0,inactive: 0,inactive: 0,inactive: 0,inactive: 0,inactive: 0,inactive: 0,inactive: 0,inactive: 0,inactive: 0,inactive: 0,inactive: 0,inactive: 0,0,0

# Reprinted at random: 2 compounds from above
Structure (SMILES),kinase-Nluc reporter destabilization hit call [1],kinase-Nluc reporter destabilization hit call [2],kinase-Nluc reporter destabilization hit call [3],kinase-Nluc reporter destabilization hit call [4],kinase-Nluc reporter destabilization hit call [5],kinase-Nluc reporter destabilization hit call [6],kinase-Nluc reporter destabilization hit call [7],kinase-Nluc reporter destabilization hit call [8],kinase-Nluc reporter destabilization hit call [9],kinase-Nluc reporter destabilization hit call [10],kinase-Nluc reporter destabilization hit call [11],kinase-Nluc reporter destabilization hit call [12],kinase-Nluc reporter destabilization hit call [13],kinase-Nluc reporter destabilization hit call [14],kinase-Nluc reporter destabilization hit call [15],kinase-Nluc reporter destabilization hit call [16],kinase-Nluc reporter destabilization hit call [17],kinase-Nluc reporter destabilization hit call [18],number of time points [19],number of time points [20]
COCCNc1cc(NC(=O)N2CCCc3cc(CN4CCOCC4=O)c(C=O)nc32)ncc1C#N (10 µM),inactive: 0,inactive: 0,inactive: 0,inactive: 0,inactive: 0,inactive: 0,inactive: 0,inactive: 0,inactive: 0,inactive: 0,inactive: 0,inactive: 0,inactive: 0,inactive: 0,inactive: 0,inactive: 0,inactive: 0,inactive: 0,0,0
N#Cc1cnc(Nc2cc(NC[C@H]3CNCCO3)c(C(F)(F)F)cn2)cn1 (10 µM),inactive: 0,inactive: 0,inactive: 0,inactive: 0,inactive: 0,inactive: 0,inactive: 0,inactive: 0,inactive: 0,inactive: 0,inactive: 0,inactive: 0,inactive: 0,inactive: 0,inactive: 0,inactive: 0,inactive: 0,inactive: 0,1,0

# From the supplement of paper PMC12823440, “Inhibitors supercharge kinase turnover through native proteolytic circuits” (Nature, 2025)
